Where a name gives a salt, the structure may show the parent alone. This is one part of the list. Hit calls seldom repeat between salt and free forms of one compound.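 In K562 cells expressing nanoluciferase-fused kinases, luminescence was recorded at 4 h intervals between 2 and 18 h, normalized as percent of control with DMSO at 100% and a positive control at 0%. A significant (2 sigma) signal drop marks a time point as decreased. The authors' rule for a hit is not shown and takes in more than the number of time points.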
Tests used:
Settings in all cases: K562; 2-18 h
STK38 = STK38 (UniProt Q15208); assay: kinase-Nluc reporter destabilization hit call (1 = scored as downregulated) (binary); higher = compound decreases kinase abundance
SYK = SYK (UniProt P43405); assay: as above
TEC = TEC (UniProt P42680); assay: as above
TYK2 = TYK2 (UniProt P29597); assay: as above
ULK3 = ULK3 (UniProt Q6PHR2); assay: as above
YES1 = YES1 (UniProt P07947); assay: as above
ZAK = ZAK (UniProt Q9NYL2); assay: as above
ZAP70 = ZAP70 (UniProt P43403); assay: as above
ABL1 = ABL1 (UniProt P00519); assay: number of time points (of 5) at which kinase-Nluc abundance scored as decreased, DMSO-normalised (count); higher = more persistent destabilization
AKT1 = AKT1 (UniProt P31749); assay: as above

The chains behind the UniProt entries cited, without tags or fusion partners. Where a name states a change or a piece, a line headed by the entry shows the natural chain unless it says otherwise.
UniProt Q15208: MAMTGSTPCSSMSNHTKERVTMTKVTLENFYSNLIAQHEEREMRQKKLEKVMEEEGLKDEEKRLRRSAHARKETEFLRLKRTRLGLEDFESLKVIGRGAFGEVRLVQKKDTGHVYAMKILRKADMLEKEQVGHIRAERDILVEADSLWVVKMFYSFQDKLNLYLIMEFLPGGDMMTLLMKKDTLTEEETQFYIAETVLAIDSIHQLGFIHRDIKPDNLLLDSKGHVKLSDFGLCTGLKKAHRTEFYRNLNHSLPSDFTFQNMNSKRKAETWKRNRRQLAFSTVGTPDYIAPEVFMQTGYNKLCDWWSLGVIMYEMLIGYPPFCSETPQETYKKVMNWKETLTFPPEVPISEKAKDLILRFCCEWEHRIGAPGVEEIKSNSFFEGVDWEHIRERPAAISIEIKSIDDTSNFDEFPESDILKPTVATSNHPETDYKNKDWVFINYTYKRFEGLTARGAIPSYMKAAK
UniProt P42680: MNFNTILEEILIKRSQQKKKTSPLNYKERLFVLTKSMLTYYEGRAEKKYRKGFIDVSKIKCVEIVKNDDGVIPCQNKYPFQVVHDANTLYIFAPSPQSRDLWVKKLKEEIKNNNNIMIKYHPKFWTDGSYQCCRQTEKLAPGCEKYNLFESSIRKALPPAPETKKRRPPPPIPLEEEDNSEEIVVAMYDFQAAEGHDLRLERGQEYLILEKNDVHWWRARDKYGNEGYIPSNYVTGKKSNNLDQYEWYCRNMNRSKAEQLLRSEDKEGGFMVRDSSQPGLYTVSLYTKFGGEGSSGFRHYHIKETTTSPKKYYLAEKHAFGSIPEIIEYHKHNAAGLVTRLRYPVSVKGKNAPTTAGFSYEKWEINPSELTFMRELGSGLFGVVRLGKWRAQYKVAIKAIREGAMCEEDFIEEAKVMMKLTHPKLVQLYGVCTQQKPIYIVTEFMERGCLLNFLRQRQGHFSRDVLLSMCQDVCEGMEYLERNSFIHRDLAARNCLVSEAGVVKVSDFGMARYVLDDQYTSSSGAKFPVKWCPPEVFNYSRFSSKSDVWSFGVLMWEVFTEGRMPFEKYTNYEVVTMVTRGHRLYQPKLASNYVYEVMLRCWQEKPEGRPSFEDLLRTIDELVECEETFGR
UniProt P29597: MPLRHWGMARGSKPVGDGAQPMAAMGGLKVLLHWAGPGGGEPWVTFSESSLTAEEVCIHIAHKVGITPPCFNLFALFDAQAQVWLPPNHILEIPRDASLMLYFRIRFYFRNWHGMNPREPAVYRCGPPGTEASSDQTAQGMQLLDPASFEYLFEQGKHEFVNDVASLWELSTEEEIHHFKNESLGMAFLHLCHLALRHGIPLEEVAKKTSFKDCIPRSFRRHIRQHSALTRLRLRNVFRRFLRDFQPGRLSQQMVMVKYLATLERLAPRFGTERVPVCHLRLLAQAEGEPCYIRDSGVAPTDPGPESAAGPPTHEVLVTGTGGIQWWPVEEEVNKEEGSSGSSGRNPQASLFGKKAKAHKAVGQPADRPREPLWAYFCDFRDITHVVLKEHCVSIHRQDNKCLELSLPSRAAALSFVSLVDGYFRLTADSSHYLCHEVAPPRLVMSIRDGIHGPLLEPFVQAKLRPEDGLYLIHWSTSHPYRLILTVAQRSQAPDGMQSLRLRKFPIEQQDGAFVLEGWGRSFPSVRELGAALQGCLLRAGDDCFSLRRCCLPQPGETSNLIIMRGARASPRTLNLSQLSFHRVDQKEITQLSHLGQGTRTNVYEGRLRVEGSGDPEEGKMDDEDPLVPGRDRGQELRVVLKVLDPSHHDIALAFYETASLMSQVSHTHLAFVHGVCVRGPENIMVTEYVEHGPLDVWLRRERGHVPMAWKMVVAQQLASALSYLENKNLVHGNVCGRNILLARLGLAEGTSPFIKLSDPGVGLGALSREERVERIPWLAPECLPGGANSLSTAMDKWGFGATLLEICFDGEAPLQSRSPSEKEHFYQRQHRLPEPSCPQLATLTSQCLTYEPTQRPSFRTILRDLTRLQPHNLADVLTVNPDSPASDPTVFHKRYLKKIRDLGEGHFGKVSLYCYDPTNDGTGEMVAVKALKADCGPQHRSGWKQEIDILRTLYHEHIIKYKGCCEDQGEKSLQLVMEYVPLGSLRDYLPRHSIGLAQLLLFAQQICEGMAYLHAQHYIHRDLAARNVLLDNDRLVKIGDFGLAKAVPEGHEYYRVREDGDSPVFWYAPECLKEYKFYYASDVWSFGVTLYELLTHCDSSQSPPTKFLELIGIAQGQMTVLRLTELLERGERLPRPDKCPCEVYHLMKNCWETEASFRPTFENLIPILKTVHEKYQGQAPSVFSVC
UniProt Q6PHR2: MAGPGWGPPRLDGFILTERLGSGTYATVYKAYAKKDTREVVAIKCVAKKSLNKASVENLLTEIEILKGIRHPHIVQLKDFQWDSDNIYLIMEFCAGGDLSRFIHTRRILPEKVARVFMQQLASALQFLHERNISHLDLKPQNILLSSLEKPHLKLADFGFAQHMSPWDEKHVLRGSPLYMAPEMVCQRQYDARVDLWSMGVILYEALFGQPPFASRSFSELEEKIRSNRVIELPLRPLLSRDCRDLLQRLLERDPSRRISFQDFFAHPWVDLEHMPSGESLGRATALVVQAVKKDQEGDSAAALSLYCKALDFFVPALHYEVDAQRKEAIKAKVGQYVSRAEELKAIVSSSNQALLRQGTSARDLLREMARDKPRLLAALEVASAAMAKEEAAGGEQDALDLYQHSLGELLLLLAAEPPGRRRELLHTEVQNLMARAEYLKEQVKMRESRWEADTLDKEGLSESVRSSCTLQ
UniProt P07947, whole entry, looked up: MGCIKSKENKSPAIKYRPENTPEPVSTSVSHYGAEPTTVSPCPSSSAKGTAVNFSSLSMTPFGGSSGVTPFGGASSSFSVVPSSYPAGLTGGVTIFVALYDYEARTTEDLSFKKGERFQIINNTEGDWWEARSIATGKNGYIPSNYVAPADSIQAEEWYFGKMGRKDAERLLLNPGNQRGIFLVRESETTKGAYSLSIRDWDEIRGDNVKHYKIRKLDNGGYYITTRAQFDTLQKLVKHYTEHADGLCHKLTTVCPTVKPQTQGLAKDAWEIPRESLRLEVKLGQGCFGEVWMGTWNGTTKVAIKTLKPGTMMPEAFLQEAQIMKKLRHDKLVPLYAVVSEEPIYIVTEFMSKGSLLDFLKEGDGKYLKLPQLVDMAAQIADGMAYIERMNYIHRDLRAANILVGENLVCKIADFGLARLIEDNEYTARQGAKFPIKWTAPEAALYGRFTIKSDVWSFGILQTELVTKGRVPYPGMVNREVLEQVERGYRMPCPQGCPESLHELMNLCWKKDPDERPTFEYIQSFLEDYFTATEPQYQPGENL
UniProt P43403: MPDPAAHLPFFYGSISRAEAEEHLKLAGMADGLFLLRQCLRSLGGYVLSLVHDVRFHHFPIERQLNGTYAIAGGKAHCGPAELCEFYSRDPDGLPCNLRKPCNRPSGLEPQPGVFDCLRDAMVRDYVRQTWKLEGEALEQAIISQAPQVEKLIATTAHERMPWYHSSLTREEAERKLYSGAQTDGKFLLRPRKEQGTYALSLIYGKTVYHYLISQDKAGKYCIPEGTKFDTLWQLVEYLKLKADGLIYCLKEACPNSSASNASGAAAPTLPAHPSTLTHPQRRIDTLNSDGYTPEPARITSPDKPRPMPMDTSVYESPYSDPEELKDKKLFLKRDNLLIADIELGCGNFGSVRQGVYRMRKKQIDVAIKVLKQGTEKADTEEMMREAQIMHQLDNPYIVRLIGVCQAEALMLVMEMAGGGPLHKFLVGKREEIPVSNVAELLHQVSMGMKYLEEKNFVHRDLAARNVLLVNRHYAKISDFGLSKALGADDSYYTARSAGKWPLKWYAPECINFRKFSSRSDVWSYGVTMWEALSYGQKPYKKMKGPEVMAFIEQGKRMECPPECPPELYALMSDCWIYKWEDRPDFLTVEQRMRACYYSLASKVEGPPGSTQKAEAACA
UniProt P00519, whole entry: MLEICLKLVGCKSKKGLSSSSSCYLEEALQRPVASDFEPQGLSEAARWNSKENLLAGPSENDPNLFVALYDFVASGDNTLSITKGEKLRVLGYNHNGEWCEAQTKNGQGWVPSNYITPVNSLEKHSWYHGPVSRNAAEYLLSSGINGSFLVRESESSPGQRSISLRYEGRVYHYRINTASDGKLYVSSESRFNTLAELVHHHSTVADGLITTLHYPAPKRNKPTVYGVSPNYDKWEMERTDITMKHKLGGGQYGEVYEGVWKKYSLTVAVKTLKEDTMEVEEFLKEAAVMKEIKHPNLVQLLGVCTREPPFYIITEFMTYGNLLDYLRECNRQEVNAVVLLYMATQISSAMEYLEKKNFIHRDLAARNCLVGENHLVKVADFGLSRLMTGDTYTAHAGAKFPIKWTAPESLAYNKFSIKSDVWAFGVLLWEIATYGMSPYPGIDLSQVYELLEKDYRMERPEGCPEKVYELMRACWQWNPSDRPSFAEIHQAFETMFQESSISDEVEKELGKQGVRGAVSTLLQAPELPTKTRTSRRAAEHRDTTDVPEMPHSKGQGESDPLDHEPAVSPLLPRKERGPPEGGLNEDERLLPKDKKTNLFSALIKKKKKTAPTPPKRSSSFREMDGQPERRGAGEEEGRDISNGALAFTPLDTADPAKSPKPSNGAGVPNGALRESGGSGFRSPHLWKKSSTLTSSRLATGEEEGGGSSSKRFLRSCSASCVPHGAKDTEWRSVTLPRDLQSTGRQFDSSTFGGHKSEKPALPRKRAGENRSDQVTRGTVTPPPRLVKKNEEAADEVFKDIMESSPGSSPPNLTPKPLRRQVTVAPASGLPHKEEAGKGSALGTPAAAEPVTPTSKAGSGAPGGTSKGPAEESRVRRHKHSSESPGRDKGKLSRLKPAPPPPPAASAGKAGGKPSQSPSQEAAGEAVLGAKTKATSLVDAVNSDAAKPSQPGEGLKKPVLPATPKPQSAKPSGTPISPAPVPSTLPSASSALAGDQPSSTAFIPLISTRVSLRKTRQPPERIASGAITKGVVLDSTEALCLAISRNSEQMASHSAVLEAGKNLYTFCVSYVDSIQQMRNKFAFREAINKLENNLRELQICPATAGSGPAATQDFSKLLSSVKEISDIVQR
UniProt P31749: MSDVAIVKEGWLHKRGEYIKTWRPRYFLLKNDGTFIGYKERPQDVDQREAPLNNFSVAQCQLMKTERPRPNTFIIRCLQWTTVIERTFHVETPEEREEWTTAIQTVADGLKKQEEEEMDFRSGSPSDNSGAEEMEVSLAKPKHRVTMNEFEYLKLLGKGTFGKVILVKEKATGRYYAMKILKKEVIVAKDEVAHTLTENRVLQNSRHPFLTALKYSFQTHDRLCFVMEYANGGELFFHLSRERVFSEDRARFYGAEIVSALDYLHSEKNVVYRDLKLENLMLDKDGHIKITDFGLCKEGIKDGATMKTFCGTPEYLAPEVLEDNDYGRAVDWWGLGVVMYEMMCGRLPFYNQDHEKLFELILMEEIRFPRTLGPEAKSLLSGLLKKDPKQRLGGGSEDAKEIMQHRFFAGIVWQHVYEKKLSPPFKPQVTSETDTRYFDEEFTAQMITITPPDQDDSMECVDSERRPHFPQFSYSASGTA

Compound	kinase-Nluc reporter destabilization hit call (STK38)	kinase-Nluc reporter destabilization hit call (SYK)	kinase-Nluc reporter destabilization hit call (TEC)	kinase-Nluc reporter destabilization hit call (TYK2)	kinase-Nluc reporter destabilization hit call (ULK3)	kinase-Nluc reporter destabilization hit call (YES1)	kinase-Nluc reporter destabilization hit call (ZAK)	kinase-Nluc reporter destabilization hit call (ZAP70)	number of time points (ABL1)	number of time points (AKT1)
CCOc1cc(C(=O)N2CCC(N3CCN(C)CC3)CC2)ccc1Nc1ncc2c(n1)N(S(C)(=O)=O)c1ccccc1C(=O)N2C (10 µM)	inactive: 0	inactive: 0	inactive: 0	inactive: 0	inactive: 0	inactive: 0	inactive: 0	inactive: 0	0	0
C=CC(=O)N1CCC[C@@H](n2c(=O)n(-c3ccc(Oc4ccccc4)cc3)c3c(N)nccc32)C1 [Tolebrutinib] (10 µM)	inactive: 0	inactive: 0	inactive: 0	inactive: 0	inactive: 0	inactive: 0	inactive: 0	inactive: 0	0	0
N#C/C(=C\c1ccc[nH]1)c1ccc(Cl)c(Cl)c1 (2.5 µM)	inactive: 0	inactive: 0	inactive: 0	inactive: 0	inactive: 0	inactive: 0	inactive: 0	inactive: 0	0	0
CC(C)(C)NS(=O)(=O)c1cncc(-c2cc(F)c3nc(N)nn3c2)c1 (10 µM)	inactive: 0	inactive: 0	inactive: 0	inactive: 0	inactive: 0	inactive: 0	inactive: 0	inactive: 0	0	0
O=c1cc(-c2ccc(O)cc2)oc2cc(O)c(O)c(O)c12 [Scutellarein] (10 µM)	inactive: 0	inactive: 0	inactive: 0	inactive: 0	inactive: 0	inactive: 0	inactive: 0	inactive: 0	0	0
C[C@H](Nc1ccc2c(c1)OCCn1cc(N3C(=O)OC[C@H]3C(F)F)nc1-2)C(N)=O (10 µM)	inactive: 0	inactive: 0	inactive: 0	inactive: 0	inactive: 0	inactive: 0	inactive: 0	inactive: 0	0	0
CNC(=O)Nc1cc(Oc2cncc(C)c2)c(-c2ccc(OCC(C)(C)O)nc2)cn1 (2.5 µM)	inactive: 0	inactive: 0	inactive: 0	inactive: 0	inactive: 0	inactive: 0	inactive: 0	inactive: 0	5	0
C[C@@H](Nc1cc(F)cc(F)c1)c1cc(C(=O)N(C)C)cc2c(=O)cc(N3CCOCC3)oc12 (10 µM)	inactive: 0	inactive: 0	inactive: 0	inactive: 0	inactive: 0	inactive: 0	inactive: 0	inactive: 0	0	0
C[C@@H]1CN(Cc2cn[nH]c2-c2ccc(C#N)cc2)CCN1c1ccc(C(F)(F)F)cn1 (2.5 µM)	inactive: 0	inactive: 0	inactive: 0	inactive: 0	inactive: 0	inactive: 0	inactive: 0	inactive: 0	0	0
Cc1ccc(-n2c(-c3ccc(O)cc3O)n[nH]c2=O)cc1 (10 µM)	inactive: 0	inactive: 0	inactive: 0	active: 1	active: 1	inactive: 0	inactive: 0	inactive: 0	0	0
COc1cc(OC)c(/C=C/S(=O)(=O)Cc2ccc(OC)c(NCC(=O)O)c2)c(OC)c1 [Rigosertib (sodium)] (10 µM)	inactive: 0	inactive: 0	inactive: 0	inactive: 0	inactive: 0	inactive: 0	inactive: 0	inactive: 0	2	0
Cc1ncc(F)c(Nc2n[nH]c3c2CN(C(=O)N2C[C@@H](C)N(CC4CCOCC4)C[C@@H]2C)C3(C)C)n1 (10 µM)	inactive: 0	inactive: 0	inactive: 0	inactive: 0	inactive: 0	inactive: 0	inactive: 0	inactive: 0	0	0
Cc1c(C(=O)Nc2ccc(Oc3ccnc4cc(OCC(C)(C)O)ccc34)c(F)c2)c(=O)n(-c2ccccc2)n1C [Ningetinib Tosylate] (10 µM)	inactive: 0	inactive: 0	inactive: 0	inactive: 0	inactive: 0	inactive: 0	inactive: 0	inactive: 0	2	0
NC(=O)c1nc(-c2c(F)cccc2Cl)oc1Nc1ccc(C(=O)N2CCOCC2)cc1 (10 µM)	inactive: 0	inactive: 0	inactive: 0	inactive: 0	inactive: 0	inactive: 0	inactive: 0	inactive: 0	0	0
CC(C)(O)c1cc(Nc2cc(Oc3cn(C4CC4)nc3C3CCOCC3)ccn2)ccn1 (10 µM)	inactive: 0	inactive: 0	inactive: 0	inactive: 0	inactive: 0	inactive: 0	inactive: 0	inactive: 0	0	0
CNC[C@@H](NC(=O)c1ccc(-c2nc([C@H]3CC[C@H](O)[C@@H](F)C3)cnc2N)cc1F)c1cc(F)cc(Br)c1 [Rineterkib] (10 µM)	inactive: 0	inactive: 0	inactive: 0	inactive: 0	inactive: 0	inactive: 0	inactive: 0	inactive: 0	0	0
CCOC(=O)C1=C[C@]2(CC)CCCN3CCc4c(n1c1ccccc41)[C@@H]32 [Vinpocetine] (10 µM)	inactive: 0	inactive: 0	inactive: 0	inactive: 0	inactive: 0	inactive: 0	inactive: 0	inactive: 0	0	0
O=C(N/N=C/c1ccc([N+](=O)[O-])o1)c1ccc(O)cc1 [Nifuroxazide] (10 µM)	inactive: 0	inactive: 0	inactive: 0	inactive: 0	inactive: 0	inactive: 0	inactive: 0	inactive: 0	3	0
Cn1cc(-c2cn3nccc3c(-c3cnn([C@]4(CC#N)C[C@@H](C#N)C4)c3)n2)cn1 (10 µM)	inactive: 0	inactive: 0	inactive: 0	inactive: 0	inactive: 0	inactive: 0	inactive: 0	inactive: 0	0	0
Cn1sc(=O)n(Cc2ccccc2)c1=O (10 µM)	inactive: 0	inactive: 0	inactive: 0	inactive: 0	inactive: 0	inactive: 0	inactive: 0	inactive: 0	0	0
COc1cccc2cc(-c3nc([C@H]4CC[C@H](C(=O)O)CC4)n4ncnc(N)c34)[nH]c12 (2.5 µM)	inactive: 0	inactive: 0	inactive: 0	inactive: 0	inactive: 0	inactive: 0	inactive: 0	inactive: 0	4	0
C=CC(=O)Nc1cc(C(=O)NC)cc(-c2n[nH]c3ccccc23)c1 (10 µM)	inactive: 0	inactive: 0	inactive: 0	inactive: 0	inactive: 0	inactive: 0	inactive: 0	inactive: 0	0	0
CCN1C(C)(C)CC(Oc2ccc(C(=O)Nc3ccc(NC(=O)Nc4cc(C(C)(C)C)on4)cc3)nc2)CC1(C)C (10 µM)	inactive: 0	inactive: 0	inactive: 0	inactive: 0	inactive: 0	inactive: 0	inactive: 0	inactive: 0	0	0
COc1ccc(COc2cc3oc(=O)c4cc(C(C)O)ccc4c3cc2OC)cc1 (stereo not given) [Palomid 529] (2.5 µM)	inactive: 0	inactive: 0	inactive: 0	inactive: 0	inactive: 0	inactive: 0	inactive: 0	inactive: 0	0	0
CCc1nc(C(N)=O)c(Nc2ccc(N3CCC(N4CCN(C)CC4)CC3)c(OC)c2)nc1NC1CCC(OC)CC1 (stereo not given) [EML4-ALK kinase inhibitor 1] (2.5 µM)	inactive: 0	inactive: 0	inactive: 0	inactive: 0	inactive: 0	inactive: 0	inactive: 0	inactive: 0	0	0
CNC(=O)c1nnc(NC(=O)C2CC2)cc1Nc1cccc(-c2ncn(C)n2)c1OC [Deucravacitinib] (10 µM)	inactive: 0	inactive: 0	inactive: 0	inactive: 0	inactive: 0	inactive: 0	inactive: 0	inactive: 0	0	0
O=c1[nH]nc(Sc2ncc([N+](=O)[O-])s2)n1-c1ccc2c(c1)OCCO2 (2.5 µM)	inactive: 0	inactive: 0	inactive: 0	inactive: 0	inactive: 0	inactive: 0	inactive: 0	inactive: 0	0	0
O=C(Nc1nccs1)C(c1cc(F)ccc1O)N1Cc2ccccc2C1=O (stereo not given) (10 µM)	inactive: 0	inactive: 0	inactive: 0	inactive: 0	inactive: 0	inactive: 0	inactive: 0	inactive: 0	0	0
CC[C@H](C)[C@H](NC(=O)[C@H](CCCCN)NC(=O)[C@H](CC(C)C)NC(=O)[C@@H]1CCCN1C(=O)[C@H](CCC(=O)O)NC(=O)[C@H](Cc1ccc(O)cc1)NC(=O)[C@@H](NC(=O)[C@H](CO)NC(=O)CNC(=O)[C@H](CO)NC(=O)[C@H](CCCN=C(N)N)NC(=O)[C@H](CCCCN)NC(=O)[C@@H](NC(=O)[C@@H](N)CCCN=C(N)N)[C@@H](C)O)C(C)C)C(=O)O [Malantide] (10 µM)	inactive: 0	inactive: 0	inactive: 0	inactive: 0	inactive: 0	inactive: 0	inactive: 0	inactive: 0	0	0

Already shown: 2 of the compounds above.
Compound	kinase-Nluc reporter destabilization hit call (STK38)	kinase-Nluc reporter destabilization hit call (SYK)	kinase-Nluc reporter destabilization hit call (TEC)	kinase-Nluc reporter destabilization hit call (TYK2)	kinase-Nluc reporter destabilization hit call (ULK3)	kinase-Nluc reporter destabilization hit call (YES1)	kinase-Nluc reporter destabilization hit call (ZAK)	kinase-Nluc reporter destabilization hit call (ZAP70)	number of time points (ABL1)	number of time points (AKT1)
O=C(Nc1nccs1)C(c1cc(F)ccc1O)N1Cc2ccccc2C1=O (stereo not given) (10 µM)	inactive: 0	inactive: 0	inactive: 0	inactive: 0	inactive: 0	inactive: 0	inactive: 0	inactive: 0	0	0
CC[C@H](C)[C@H](NC(=O)[C@H](CCCCN)NC(=O)[C@H](CC(C)C)NC(=O)[C@@H]1CCCN1C(=O)[C@H](CCC(=O)O)NC(=O)[C@H](Cc1ccc(O)cc1)NC(=O)[C@@H](NC(=O)[C@H](CO)NC(=O)CNC(=O)[C@H](CO)NC(=O)[C@H](CCCN=C(N)N)NC(=O)[C@H](CCCCN)NC(=O)[C@@H](NC(=O)[C@@H](N)CCCN=C(N)N)[C@@H](C)O)C(C)C)C(=O)O [Malantide] (10 µM)	inactive: 0	inactive: 0	inactive: 0	inactive: 0	inactive: 0	inactive: 0	inactive: 0	inactive: 0	0	0

Reference: the supplement of paper PMC12823440, “Inhibitors supercharge kinase turnover through native proteolytic circuits” (Nature, 2025)
